No constants are given. Whether binding was seen depends on the method and setting. Binding seen in cells or lysates may run through a third protein. Some results given as binding are weak or reduced against the parent protein; the word gives no strength. Tags and fused reporters may be left off the sequences shown.

The assay concerns the target T1, 3 × FLAG-tagged AtCPK5 (Arabidopsis) (UniProt Q38871).
T1 sequence: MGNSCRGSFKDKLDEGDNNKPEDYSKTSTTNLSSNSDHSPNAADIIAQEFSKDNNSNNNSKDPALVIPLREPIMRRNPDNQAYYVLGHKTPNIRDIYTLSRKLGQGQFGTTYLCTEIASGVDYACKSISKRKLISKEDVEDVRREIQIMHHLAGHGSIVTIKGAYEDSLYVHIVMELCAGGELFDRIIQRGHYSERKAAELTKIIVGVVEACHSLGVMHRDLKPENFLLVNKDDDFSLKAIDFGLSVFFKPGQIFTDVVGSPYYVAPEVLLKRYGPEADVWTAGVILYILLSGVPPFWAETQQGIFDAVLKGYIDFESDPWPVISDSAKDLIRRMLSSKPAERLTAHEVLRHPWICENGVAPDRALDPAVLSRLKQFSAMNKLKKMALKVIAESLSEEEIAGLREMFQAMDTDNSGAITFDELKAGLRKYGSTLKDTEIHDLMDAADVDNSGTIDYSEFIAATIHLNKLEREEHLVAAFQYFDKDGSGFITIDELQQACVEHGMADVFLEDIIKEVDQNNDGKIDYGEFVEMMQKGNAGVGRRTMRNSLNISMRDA
Nature of the assay: co-IP; transgenic Arabidopsis seedlings with AtCPK5-3xFLAG and AtLYK5-HA (native promoter), treated with 25 μg/mL chitin or water; lysate (50 mM Tris-HCl pH 7.5, 150 mM NaCl, 2 mM EDTA, 1% Triton X-100, 10% glycerol), anti-FLAG agarose 3 h at 4°C, anti-HA blot.

B1: AtLYK5-HA (receptor, UniProt O22808 27-664)
chain: QQPYVNNHQLACEVRVYDNITNGFTCNGPPSCRSYLTFWSQPPYNTADSIAKLLNVSAAEIQSINNLPTATTRIPTRELVVIPANCSCSSSSGGFYQHNATYNLSGNRGDETYFSVANDTYQALSTCQAMMSQNRYGERQLTPGLNLLVPLRCACPTAKQTTAGFKYLLTYLVAMGDSISGIAEMFNSTSAAITEGNELTSDNIFFFTPVLVPLTTEPTKIVISPSPPPPPVVATPPQTPVDPPGSSSSHKWIYIGIGIGAGLLLLLSILALCFYKRRSKKKSLPSSLPEENKLFDSSTKQSIPTTTTTQWSIDLSNSSEAFGLKSAIESLTLYRFNDLQSATSNFSDENRIKGSVYRATINGDDAAVKVIKGDVSSSEINLLKKLNHSNIIRLSGFCIREGTSYLVFEYSENGSISDWLHSSGKKSLTWKQRVEIARDVAEALDYLHNYITPPHIHKNLESTNILLDSNFRAKIANFGVARILDEGDLDLQLTRHVEGTQGYLAPEYVENGVITSKLDVFAFGVAVLELLSGREAVTIHKKKEGEEEVEMLCKVINSVLGGENVREKLKEFMDPSLGNEYPLELAYTMAQLAKSCVATDLNSRPSVTQVLTTLSMIVSSSIDWEPSDDLLRSGSLGN
As for B1, the binding result is listed as “binds”.
